The list does not hold the whole screen: it is rich in T/C values a quarter to a half above the control, in often repeated tests (any T/C) and in doses without a T/C. Further doses and runs are listed elsewhere. T/C is the treated group as % of the vehicle group. Some entries give survivors of the animals treated and no T/C: the source holds a T/C of zero for them, seemingly a mark for toxic or unscored doses. Some doses without a T/C left all or most animals alive at the check, yet need not have been tolerated: the source hardly ever lists a survival T/C far under the control, and the zero likely stands for such cases as well. Survivors were counted at the toxicity check, usually on the fifth day, unless a day is given; later deaths do not show. Schedules are NCI's codes, taken here to give the interval after Q, in days (D) or hours (H), and the number of doses after X. Some entries hold several experiments; the results are listed from low to high. Where survival is the endpoint, this PubChem deposit counts one and a half times the control or more as active, and values a quarter to a half above the control carry no call in these data; other NCI protocols may use other cut-offs. Some T/C values carry the count of animals alive at the toxicity check (mostly the fifth day); without a count, all were alive then. Numbered stars: 1 amine (or outer) side, 2 acyl side, 3 side chain; on linkers, the order of the positions; unused ones are H or OH. Bridge positions count the residues as written; N and C are the ends. Square brackets hold non-standard residues; d marks the D form. Peptide text beside a SMILES is read from it. I, II: the chains in the order shown. Actinocin(9to1) = Cc1c2oc3c(C)ccc(C(=O)[*:1])c3nc-2c(C(=O)[*:2])c(N)c1=O; X2 = O=C(C1CC(Cl)CN1[*:1])[*:2]; NMeV = CN[CH](C(=O)O)C(C)C; Sar = CNCC(=O)O

In the assay the test system is BDF1 mice, B16 melanoma ip, median survival T/C. Briefly: NCI In Vivo Anticancer Drug Screen. Data for tumor model B16 Melanoma (intraperitoneal) in B6D2F1 (BDF1) mice. The settings on record: T/C endpoint: median survival time, higher T/C = longer survival. As to the method: The antitumor activity of compounds was measured in mice bearing transplantable tumors. Survival or tumor size were measured and the results are expressed as the measurement made in the treated group (T) divided by the measurement made in the vehicle treated control group (C). The tumor model used in this assay is B16 Melanoma (intraperitoneal) in B6D2F1 (BDF1) mice

The mark [1] stands for this setting: dose: 1.0 mg/kg/injection, schedule: Q01DX009 (ip), vehicle: saline.
Setting [2] is: dose: 4.0 mg/kg/injection, schedule: Q01DX009 (ip), vehicle: saline.
The mark [3] stands for this setting: dose: 200.0 mg/kg/injection, schedule: Q01DX009 (ip), vehicle: Klucel (hydroxypropylcellulose) (HPC).
Setting [4] is: dose: 100.0 mg/kg/injection, schedule: Q01DX009 (ip), vehicle: Klucel (hydroxypropylcellulose) (HPC).
[5] abbreviates: dose: 400.0 mg/kg/injection, schedule: Q01DX009 (ip), vehicle: Klucel (hydroxypropylcellulose) (HPC).

For the compound `Cc1c2oc3c(C)ccc(C(=O)NC4C(=O)NC(C(C)C)C(=O)N5CC(Cl)CC5C(=O)N(C)CC(=O)N(C)C(C(C)C)C(=O)OC4C)c3nc-2c(C(=O)NC2C(=O)NC(C(C)C)C(=O)N3CC(Cl)CC3C(=O)N(C)CC(=O)N(C)C(C(C)C)C(=O)OC2C)c(N)c1=O` (stereo unspecified) (I: TV[X2][Sar][NMeV] / II: TV[X2][Sar][NMeV]; ester I:1-I:C, II:1-II:C; linker I:N-II:N via Actinocin(9to1); configuration not given here), the T/C (dose: 648.0 micrograms/kg/injection, schedule: Q04DX003 (ip), vehicle: saline + alcohol) is 144 % of control. Further, the survivor count runs as follows: (dose: 3000.0 micrograms/kg/injection, schedule: Q04DX003 (ip), vehicle: saline + alcohol) 8 of 8; (dose: 5000.0 micrograms/kg/injection, schedule: Q04DX003 (ip), vehicle: saline + alcohol) 3 of 8.
With `CCN1/C(=C/C=C/C=C\C=C\c2sc3ccc4ccccc4c3[n+]2CC)Sc2ccc3ccccc3c21`, the survivor count reads like this: (dose: 1.25 mg/kg/injection, schedule: Q01DX009 (ip), vehicle: saline with Tween-80) 9 of 10; (dose: 5.0 mg/kg/injection, schedule: Q01DX009 (ip), vehicle: saline with Tween-80) 10 of 10; (dose: 40.0 mg/kg/injection, schedule: Q01DX009 (ip), vehicle: saline with Tween-80) 9 of 10.
With `c1ccc(N/N=C2/CCN3CCCc4cccc2c43)cc1`, the survivor count is, setting by setting: (dose: 0.05 mg/kg/injection, schedule: Q04DX003 (ip), vehicle: DMSO) 8 of 10; (dose: 0.1 mg/kg/injection, schedule: Q04DX003 (ip), vehicle: DMSO) 10 of 10; (dose: 0.18 mg/kg/injection, schedule: Q01DX009 (ip), vehicle: DMSO) 10 of 10; (dose: 0.2 mg/kg/injection, schedule: Q04DX003 (ip), vehicle: DMSO) 10 of 10; (dose: 0.37 mg/kg/injection, schedule: Q01DX009 (ip), vehicle: DMSO) 10 of 10; (dose: 0.4 mg/kg/injection, schedule: Q04DX003 (ip), vehicle: DMSO) 10 of 10. Further, the survivor count (dose: 0.75 mg/kg/injection, schedule: Q01DX009 (ip), vehicle: DMSO) is reported as 10 of 10; the survivor count (dose: 0.75 mg/kg/injection, schedule: Q04DX003 (ip), vehicle: DMSO) is recorded as 10 of 10; the survivor count (dose: 1.5 mg/kg/injection, schedule: Q01DX009 (ip), vehicle: DMSO) was 10 of 10; the survivor count (dose: 1.5 mg/kg/injection, schedule: Q04DX003 (ip), vehicle: DMSO) was 10 of 10; the survivor count (dose: 3.0 mg/kg/injection, schedule: Q01DX009 (ip), vehicle: DMSO) is reported as 10 of 10; the survivor count (dose: 3.0 mg/kg/injection, schedule: Q04DX003 (ip), vehicle: DMSO) is reported as 9 of 9. Further, the survivor count is 10 of 10 (dose: 6.0 mg/kg/injection, schedule: Q04DX003 (ip), vehicle: DMSO); 10 of 10 (dose: 6.25 mg/kg/injection, schedule: Q04DX003 (ip), vehicle: DMSO); 5 of 8 and 10 of 10 (dose: 12.5 mg/kg/injection, schedule: Q01DX009 (ip), vehicle: DMSO); 10 of 10 (dose: 12.5 mg/kg/injection, schedule: Q04DX003 (ip), vehicle: DMSO); 5 of 10 and 10 of 10 (dose: 25.0 mg/kg/injection, schedule: Q01DX009 (ip), vehicle: DMSO); 10 of 10 (dose: 25.0 mg/kg/injection, schedule: Q04DX003 (ip), vehicle: DMSO). Also, the survivor count reads like this: (dose: 50.0 mg/kg/injection, schedule: Q01DX009 (ip), vehicle: DMSO) 5 of 10 and 9 of 10; (dose: 50.0 mg/kg/injection, schedule: Q04DX003 (ip), vehicle: DMSO) 10 of 10; (dose: 100.0 mg/kg/injection, schedule: Q01DX009 (ip), vehicle: DMSO) 0 of 10 and 7 of 10; (dose: 6.0 micrograms/kg/injection, schedule: Q01DX009 (ip), vehicle: DMSO) 10 of 10; (dose: 12.0 micrograms/kg/injection, schedule: Q01DX009 (ip), vehicle: DMSO) 10 of 10; (dose: 50.0 micrograms/kg/injection, schedule: Q01DX009 (ip), vehicle: DMSO) 10 of 10.
With `CC[C@](O)(C(=O)O)c1cc2n(c(=O)c1CO)Cc1cc3ccccc3nc1-2`, the T/C runs as follows: under setting [1], 134 % of control; (dose: 1.57 mg/kg/injection, schedule: Q01DX009 (ip), vehicle: other) 128 % of control; (dose: 2.0 mg/kg/injection, schedule: Q01DX009 (ip), vehicle: saline, evaluated on day 45) 134 % of control; (dose: 2.0 mg/kg/injection, schedule: Q01DX009 (ip), vehicle: saline, evaluated on day 60) 127 % of control; under setting [2], 126 % of control. Moreover, the survivor count was 7 of 10 (dose: 3.13 mg/kg/injection, schedule: Q01DX009 (ip), vehicle: other); 10 of 10 under setting [2]; 9 of 10 (dose: 6.25 mg/kg/injection, schedule: Q01DX009 (ip), vehicle: other); 10 of 10 and 6 of 6 (dose: 8.0 mg/kg/injection, schedule: Q01DX009 (ip), vehicle: saline); 8 of 10 (dose: 12.5 mg/kg/injection, schedule: Q01DX009 (ip), vehicle: other); 4 of 10 (dose: 25.0 mg/kg/injection, schedule: Q01DX009 (ip), vehicle: other).
As to `NC(Cn1ccc(=O)c(O)c1)C(=O)O` (stereo unspecified), the survivor count is listed as 9 of 10 (dose: 400.0 mg/kg/injection, schedule: Q01DX009 (ip), vehicle: saline); 9 of 10 (dose: 600.0 mg/kg/injection, schedule: Q01DX007 (ip), vehicle: saline with Tween-80); 8 of 10 (dose: 800.0 mg/kg/injection, schedule: Q01DX009 (ip), vehicle: saline); 4 of 10 (dose: 1200.0 mg/kg/injection, schedule: Q01DX009 (ip), vehicle: saline); 2 of 10 (dose: 1600.0 mg/kg/injection, schedule: Q01DX009 (ip), vehicle: saline).
Consider `Cc1ccc(CNc2ccc(Cl)cc2)cc1`, for which the survivor count under setting [3] is recorded as 5 of 10.
For `CC(C)(C)OC(=O)NC(CCC(=O)OCc1ccccc1)C(=O)ON1C(=O)CCC1=O` (stereo unspecified), the survivor count is recorded as 10 of 10 (dose: 200.0 mg/kg/injection, schedule: Q01DX009 (ip), vehicle: saline with Tween-80) and 10 of 10 (dose: 400.0 mg/kg/injection, schedule: Q01DX009 (ip), vehicle: saline with Tween-80).
With `Cc1ccc(Cl)cc1NC(=O)COc1ccc(Cl)cc1`, the survivor count under setting [4] is 10 of 10, the survivor count under setting [3] is 10 of 10 and the survivor count under setting [5] is given as 9 of 10.
As for `CCC(C)C(=O)O[C@H]1C(=O)O[C@@H]2C[C@H]3C(C)=CC(=O)[C@@H](O)[C@]3(C)[C@H]3[C@@H](O)[C@H](O)[C@@]4(C)OC[C@]32[C@@H]14` (stereo partly specified), the T/C (dose: 0.5 mg/kg/injection, schedule: Q01DX009 (ip), vehicle: saline) was 134 % of control [9 of 10 alive]; the T/C under setting [1] is 145 % of control [8 of 10 alive]; the T/C (dose: 2.0 mg/kg/injection, schedule: Q01DX009 (ip), vehicle: saline) is 144 % of control; the T/C under setting [2] is 146 % of control.
Take `CCCN(C)/N=N/c1[nH]ncc1C(N)=O`: the T/C (dose: 25.0 mg/kg/injection, schedule: Q01DX009 (ip), vehicle: saline with Tween-80) was 134 and 146 % of control. Further, for the setting “dose: 100.0 mg/kg/injection, schedule: Q01DX009 (ip), vehicle: saline with Tween-80”, the survivor count is given as 10 of 10.
With `COc1ccc(NC(=O)Nc2ccccc2Cl)cc1`, the survivor count is 10 of 10 under setting [4], 10 of 10 under setting [3] and 10 of 10 under setting [5].

For the origin of these results see PubChem BioAssay AID192 (DTP/NCI, 2004).
